Measured values: the supplement of paper PMC6411743
± gives the standard deviation of the averaged measurements. The list shows a part of the results.

Protein sequences, listed by entry. Tags and fused reporters are not part of them. Lines headed by an entry give the natural chain unless they say otherwise; changes in a name come on top.
UniProt P41214: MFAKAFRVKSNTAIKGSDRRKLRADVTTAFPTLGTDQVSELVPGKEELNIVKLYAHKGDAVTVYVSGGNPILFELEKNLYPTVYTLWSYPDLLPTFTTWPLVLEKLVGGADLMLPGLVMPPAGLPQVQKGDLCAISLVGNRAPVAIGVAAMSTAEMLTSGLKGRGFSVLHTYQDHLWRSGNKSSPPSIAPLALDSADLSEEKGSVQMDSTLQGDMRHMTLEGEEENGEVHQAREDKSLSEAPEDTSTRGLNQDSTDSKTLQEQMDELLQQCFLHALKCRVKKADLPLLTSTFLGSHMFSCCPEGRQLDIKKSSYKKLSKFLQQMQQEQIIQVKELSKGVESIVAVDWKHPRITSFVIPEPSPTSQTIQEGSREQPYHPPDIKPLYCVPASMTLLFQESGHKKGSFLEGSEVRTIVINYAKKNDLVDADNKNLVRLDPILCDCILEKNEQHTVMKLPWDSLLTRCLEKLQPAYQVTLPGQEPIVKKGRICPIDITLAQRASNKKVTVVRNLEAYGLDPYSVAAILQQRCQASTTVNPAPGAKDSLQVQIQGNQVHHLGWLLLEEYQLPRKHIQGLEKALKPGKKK
UniProt P43007: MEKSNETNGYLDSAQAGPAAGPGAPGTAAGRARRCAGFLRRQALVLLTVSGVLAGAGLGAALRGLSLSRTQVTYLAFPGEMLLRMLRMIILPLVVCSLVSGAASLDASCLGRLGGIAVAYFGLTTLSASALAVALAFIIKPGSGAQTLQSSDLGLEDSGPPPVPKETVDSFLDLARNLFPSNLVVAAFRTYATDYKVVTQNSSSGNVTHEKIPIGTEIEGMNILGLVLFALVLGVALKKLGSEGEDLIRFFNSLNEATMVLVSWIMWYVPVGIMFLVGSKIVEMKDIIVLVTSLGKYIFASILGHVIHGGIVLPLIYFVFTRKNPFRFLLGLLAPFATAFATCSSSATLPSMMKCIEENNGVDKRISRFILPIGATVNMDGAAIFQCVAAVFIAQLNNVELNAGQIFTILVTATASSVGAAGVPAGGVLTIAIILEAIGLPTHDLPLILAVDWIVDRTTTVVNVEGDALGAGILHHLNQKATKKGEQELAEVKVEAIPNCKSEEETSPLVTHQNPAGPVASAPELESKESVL
UniProt P42575: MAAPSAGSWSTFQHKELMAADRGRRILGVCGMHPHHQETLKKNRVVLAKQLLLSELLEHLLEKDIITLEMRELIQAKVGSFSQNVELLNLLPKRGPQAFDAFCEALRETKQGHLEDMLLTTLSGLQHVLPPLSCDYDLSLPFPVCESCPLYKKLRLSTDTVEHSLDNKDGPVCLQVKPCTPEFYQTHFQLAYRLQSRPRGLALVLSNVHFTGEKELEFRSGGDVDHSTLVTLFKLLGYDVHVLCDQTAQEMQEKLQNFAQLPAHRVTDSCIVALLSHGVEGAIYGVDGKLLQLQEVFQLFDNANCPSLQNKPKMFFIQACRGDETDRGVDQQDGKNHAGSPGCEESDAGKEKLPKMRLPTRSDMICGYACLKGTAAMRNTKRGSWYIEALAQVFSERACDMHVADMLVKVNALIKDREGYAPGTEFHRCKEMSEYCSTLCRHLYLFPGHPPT
UniProt P45985: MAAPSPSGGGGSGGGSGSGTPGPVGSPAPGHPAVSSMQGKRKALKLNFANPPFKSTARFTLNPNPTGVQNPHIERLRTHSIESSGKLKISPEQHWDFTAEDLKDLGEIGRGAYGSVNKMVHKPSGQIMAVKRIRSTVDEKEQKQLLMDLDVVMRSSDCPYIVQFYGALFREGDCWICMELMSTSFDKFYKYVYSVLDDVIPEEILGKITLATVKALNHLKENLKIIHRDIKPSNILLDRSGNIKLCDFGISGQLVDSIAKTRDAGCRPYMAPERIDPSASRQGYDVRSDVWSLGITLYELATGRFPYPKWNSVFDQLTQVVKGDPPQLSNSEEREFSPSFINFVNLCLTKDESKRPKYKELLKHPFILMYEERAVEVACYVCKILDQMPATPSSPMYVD
UniProt P46977: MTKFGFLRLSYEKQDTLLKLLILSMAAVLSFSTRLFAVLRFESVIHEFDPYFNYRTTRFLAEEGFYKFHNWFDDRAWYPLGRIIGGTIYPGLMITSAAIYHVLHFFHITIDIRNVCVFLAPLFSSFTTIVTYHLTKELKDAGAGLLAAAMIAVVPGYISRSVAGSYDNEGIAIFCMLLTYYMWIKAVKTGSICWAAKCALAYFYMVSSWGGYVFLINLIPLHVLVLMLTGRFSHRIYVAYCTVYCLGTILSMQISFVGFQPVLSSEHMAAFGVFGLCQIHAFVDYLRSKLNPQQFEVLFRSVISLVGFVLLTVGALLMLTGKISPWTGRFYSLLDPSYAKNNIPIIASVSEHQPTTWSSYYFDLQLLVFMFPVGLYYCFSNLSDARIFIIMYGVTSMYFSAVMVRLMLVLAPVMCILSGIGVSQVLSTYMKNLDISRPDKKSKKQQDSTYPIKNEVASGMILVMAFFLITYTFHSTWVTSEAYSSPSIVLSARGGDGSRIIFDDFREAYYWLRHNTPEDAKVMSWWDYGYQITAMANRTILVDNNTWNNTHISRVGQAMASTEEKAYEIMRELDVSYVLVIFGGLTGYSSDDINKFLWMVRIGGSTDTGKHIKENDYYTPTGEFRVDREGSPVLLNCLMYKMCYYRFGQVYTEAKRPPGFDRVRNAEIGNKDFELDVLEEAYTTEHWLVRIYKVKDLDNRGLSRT
UniProt P35998: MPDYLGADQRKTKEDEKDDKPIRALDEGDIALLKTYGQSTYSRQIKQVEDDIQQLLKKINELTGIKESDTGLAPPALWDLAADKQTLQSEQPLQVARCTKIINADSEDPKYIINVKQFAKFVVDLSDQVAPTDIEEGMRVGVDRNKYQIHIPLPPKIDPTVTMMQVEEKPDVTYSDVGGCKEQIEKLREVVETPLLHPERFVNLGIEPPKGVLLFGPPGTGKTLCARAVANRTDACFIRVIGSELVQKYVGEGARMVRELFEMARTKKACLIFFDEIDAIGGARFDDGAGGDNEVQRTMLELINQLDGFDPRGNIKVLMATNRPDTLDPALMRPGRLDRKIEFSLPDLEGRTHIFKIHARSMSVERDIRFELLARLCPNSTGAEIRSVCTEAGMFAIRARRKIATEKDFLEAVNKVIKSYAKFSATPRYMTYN
UniProt P49458: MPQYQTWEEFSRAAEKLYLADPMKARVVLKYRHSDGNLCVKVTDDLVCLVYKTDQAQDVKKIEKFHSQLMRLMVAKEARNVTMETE
UniProt P49721: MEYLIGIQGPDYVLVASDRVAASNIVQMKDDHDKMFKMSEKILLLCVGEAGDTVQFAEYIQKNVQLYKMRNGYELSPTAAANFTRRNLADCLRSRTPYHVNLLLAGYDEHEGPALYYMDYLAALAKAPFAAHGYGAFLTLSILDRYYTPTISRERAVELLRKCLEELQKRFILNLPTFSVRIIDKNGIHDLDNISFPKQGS
UniProt P37275: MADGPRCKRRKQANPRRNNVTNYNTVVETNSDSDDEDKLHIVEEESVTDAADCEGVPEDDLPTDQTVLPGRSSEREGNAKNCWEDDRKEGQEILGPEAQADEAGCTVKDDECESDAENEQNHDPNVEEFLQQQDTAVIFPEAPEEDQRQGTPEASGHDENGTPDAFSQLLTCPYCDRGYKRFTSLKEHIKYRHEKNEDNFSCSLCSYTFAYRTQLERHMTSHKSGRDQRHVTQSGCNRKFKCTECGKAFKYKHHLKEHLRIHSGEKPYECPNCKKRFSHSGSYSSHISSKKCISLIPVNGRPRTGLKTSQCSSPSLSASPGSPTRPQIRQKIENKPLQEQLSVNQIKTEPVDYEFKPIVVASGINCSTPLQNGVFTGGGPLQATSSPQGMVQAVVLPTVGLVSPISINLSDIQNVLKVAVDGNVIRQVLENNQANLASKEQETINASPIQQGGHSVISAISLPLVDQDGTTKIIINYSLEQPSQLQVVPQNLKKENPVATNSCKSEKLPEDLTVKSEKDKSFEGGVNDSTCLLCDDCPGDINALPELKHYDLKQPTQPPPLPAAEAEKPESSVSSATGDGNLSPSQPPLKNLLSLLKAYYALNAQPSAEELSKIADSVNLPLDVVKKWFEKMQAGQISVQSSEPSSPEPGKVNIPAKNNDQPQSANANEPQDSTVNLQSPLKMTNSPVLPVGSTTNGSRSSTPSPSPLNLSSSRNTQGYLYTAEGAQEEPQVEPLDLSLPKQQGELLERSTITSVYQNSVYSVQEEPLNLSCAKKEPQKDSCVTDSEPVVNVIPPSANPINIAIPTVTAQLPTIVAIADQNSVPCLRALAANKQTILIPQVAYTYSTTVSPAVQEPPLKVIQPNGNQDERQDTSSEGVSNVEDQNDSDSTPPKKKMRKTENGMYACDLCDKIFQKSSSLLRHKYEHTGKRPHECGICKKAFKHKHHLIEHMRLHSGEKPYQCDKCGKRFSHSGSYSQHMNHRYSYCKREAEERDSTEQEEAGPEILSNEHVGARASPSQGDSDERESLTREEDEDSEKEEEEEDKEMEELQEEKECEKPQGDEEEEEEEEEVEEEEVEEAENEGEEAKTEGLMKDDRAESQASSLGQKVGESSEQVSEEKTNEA
UniProt P47813, whole entry: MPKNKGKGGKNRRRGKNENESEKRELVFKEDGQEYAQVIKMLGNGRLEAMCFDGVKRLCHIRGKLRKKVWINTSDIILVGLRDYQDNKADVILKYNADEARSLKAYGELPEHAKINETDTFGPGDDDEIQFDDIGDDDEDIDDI
UniProt P30084: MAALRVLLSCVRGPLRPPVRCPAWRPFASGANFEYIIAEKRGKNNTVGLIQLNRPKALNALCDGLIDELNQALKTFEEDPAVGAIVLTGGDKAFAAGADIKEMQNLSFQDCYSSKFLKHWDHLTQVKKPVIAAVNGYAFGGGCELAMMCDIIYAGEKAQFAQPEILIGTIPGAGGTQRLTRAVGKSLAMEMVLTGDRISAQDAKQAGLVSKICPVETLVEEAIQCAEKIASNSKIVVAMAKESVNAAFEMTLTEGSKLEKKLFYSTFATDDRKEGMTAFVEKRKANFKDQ
UniProt P35659: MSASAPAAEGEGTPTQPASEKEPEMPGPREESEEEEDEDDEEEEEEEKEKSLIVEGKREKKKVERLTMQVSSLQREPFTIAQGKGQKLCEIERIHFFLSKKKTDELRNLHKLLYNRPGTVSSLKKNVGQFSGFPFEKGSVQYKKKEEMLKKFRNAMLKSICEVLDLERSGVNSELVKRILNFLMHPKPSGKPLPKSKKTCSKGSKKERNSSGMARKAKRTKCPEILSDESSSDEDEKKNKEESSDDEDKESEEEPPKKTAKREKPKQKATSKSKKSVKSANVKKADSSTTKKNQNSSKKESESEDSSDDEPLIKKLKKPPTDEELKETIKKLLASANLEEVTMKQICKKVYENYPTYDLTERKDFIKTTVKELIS
UniProt P48556: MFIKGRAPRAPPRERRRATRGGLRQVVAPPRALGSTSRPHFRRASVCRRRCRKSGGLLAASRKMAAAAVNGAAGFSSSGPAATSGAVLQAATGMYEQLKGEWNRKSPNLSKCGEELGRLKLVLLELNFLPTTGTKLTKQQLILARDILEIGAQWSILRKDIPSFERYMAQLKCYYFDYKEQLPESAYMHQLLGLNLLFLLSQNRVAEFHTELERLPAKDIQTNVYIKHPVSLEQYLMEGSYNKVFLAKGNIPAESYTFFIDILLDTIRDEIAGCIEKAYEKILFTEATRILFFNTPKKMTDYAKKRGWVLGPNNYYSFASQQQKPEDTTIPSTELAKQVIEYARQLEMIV
UniProt P37268: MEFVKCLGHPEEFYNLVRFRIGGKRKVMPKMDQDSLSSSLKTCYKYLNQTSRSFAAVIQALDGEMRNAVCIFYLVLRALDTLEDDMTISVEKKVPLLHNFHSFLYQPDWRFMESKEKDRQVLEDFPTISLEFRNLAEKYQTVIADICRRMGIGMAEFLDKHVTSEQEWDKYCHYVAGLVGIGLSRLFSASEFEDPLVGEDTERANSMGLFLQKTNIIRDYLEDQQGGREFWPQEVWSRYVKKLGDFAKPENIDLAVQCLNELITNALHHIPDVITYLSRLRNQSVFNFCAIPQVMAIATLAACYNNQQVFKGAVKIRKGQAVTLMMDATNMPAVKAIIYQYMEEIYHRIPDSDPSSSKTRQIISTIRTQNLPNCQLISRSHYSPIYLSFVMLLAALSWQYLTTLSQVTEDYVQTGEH
UniProt P49336: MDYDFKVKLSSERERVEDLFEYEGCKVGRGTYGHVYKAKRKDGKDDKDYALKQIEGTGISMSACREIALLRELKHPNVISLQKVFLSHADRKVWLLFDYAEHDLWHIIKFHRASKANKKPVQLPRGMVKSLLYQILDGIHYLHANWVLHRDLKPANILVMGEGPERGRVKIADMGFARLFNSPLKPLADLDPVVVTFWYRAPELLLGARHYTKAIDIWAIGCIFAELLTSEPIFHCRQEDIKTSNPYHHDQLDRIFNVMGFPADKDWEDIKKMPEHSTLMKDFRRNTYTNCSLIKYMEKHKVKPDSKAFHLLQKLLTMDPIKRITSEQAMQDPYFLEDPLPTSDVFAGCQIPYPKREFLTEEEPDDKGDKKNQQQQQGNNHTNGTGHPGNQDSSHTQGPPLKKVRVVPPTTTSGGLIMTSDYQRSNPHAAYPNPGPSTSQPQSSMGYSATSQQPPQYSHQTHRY

Compound: Nc1nc2c(ncn2[C@@H]2O[C@H](COP(=O)(O)OP(=O)(O)OP(=O)(O)O)[C@@H](O)[C@H]2O)c(=O)[nH]1 [guanosine triphosphate]
Test: NP40-soluble protein abundance relative to vehicle (solubility fold change) (ratio); higher = more soluble protein in presence of GTP
Method in brief: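 Values are fold changes against the detergent-processed vehicle, based on vsn-normalised intensities. Jurkat crude lysate was treated at eight concentrations from 0.1 to 10 mM (10 min at room temperature, then 3 min at 37 °C), solubilised with 0.8% NP40 and benzonase, ultracentrifuged and analysed by TMT-labelled LC-MS/MS over three independent experiments.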

Target	NP40-soluble protein abundance (concentration: 0.1mM)	NP40-soluble protein abundance (concentration: 0.5mM)	NP40-soluble protein abundance (concentration: 1mM)	NP40-soluble protein abundance (concentration: 2mM)	NP40-soluble protein abundance (concentration: 4mM)	NP40-soluble protein abundance (concentration: 6mM)	NP40-soluble protein abundance (concentration: 8mM)	NP40-soluble protein abundance (concentration: 10mM)
UniProt P41214	1.04 ± 0.051	1.02 ± 0.04	1 ± 0.021	0.984 ± 0.041	1 ± 0.034	0.952 ± 0.033	0.981 ± 0.044	0.933 ± 0.069
UniProt P45984 and related entries	1.02 ± 0.14	1 ± 0.099	0.984 ± 0.069	0.971 ± 0.14	0.926 ± 0.17	0.968 ± 0.24	0.965 ± 0.14	0.922 ± 0.14
MYH10 (UniProt P35580)	0.971 ± 0.046	1.05 ± 0.072	1.05 ± 0.075	1.04 ± 0.084	1.04 ± 0.086	1.05 ± 0.072	1.08 ± 0.12	1.05 ± 0.1
PRDX6 (UniProt P30041)	0.968 ± 0.087	0.889 ± 0.033	0.893 ± 0.03	0.9 ± 0.044	0.889 ± 0.049	0.873 ± 0.019	0.795 ± 0.1	0.806 ± 0.081
SLC1A4 (UniProt P43007)	0.997 ± 0.05	0.971 ± 0.052	0.981 ± 0.05	0.957 ± 0.071	0.94 ± 0.08	0.918 ± 0.052	0.956 ± 0.038	0.949 ± 0.084
UniProt P49589-3|P49589	0.971 ± 0.031	0.976 ± 0.031	0.953 ± 0.027	0.926 ± 0.018	0.928 ± 0.011	0.911 ± 0.015	0.917 ± 0.039	0.9 ± 0.019
HIBADH (UniProt P31937)	0.951 ± 0.062	0.993 ± 0.025	0.986 ± 0.035	0.962 ± 0.089	0.941 ± 0.032	0.953 ± 0.063	0.97 ± 0.012	0.984 ± 0.072
CASP2 (UniProt P42575)	1.02 ± 0.02	0.988 ± 0.07	1 ± 0.036	0.957 ± 0.076	0.939 ± 0.04	0.914 ± 0.078	0.953 ± 0.023	0.916 ± 0.062
UniProt P45985 and related entries	0.975 ± 0.05	0.977 ± 0.033	0.944 ± 0.069	0.875 ± 0.083	0.881 ± 0.093	0.857 ± 0.11	0.903 ± 0.024	0.873 ± 0.056
CENPF (UniProt P49454)	0.987 ± 0.026	0.995 ± 0.045	1.03 ± 0.048	1.04 ± 0.061	1.06 ± 0.045	1.06 ± 0.055	1.1 ± 0.058	1.11 ± 0.086
STT3A (UniProt P46977)	0.995 ± 0.037	1.03 ± 0.055	0.912 ± 0.051	0.902 ± 0.1	0.912 ± 0.045	0.905 ± 0.057	0.88 ± 0.0097	0.858 ± 0.03
GNL1 (UniProt P36915)	1.05 ± 0.023	1.03 ± 0.019	0.972 ± 0.033	0.95 ± 0.015	0.9647 ± 0.0095	0.944 ± 0.02	0.959 ± 0.045	0.906 ± 0.061
PSMC2 (UniProt P35998)	0.991 ± 0.026	1.03 ± 0.061	1.03 ± 0.086	1.06 ± 0.1	1.06 ± 0.087	1.08 ± 0.14	1.08 ± 0.13	1.06 ± 0.14
SRP9 (UniProt P49458)	0.943 ± 0.11	0.889 ± 0.065	1.03 ± 0.14	1.03 ± 0.096	1.03 ± 0.095	1.05 ± 0.093	1.01 ± 0.17	1.11 ± 0.17
FNTB (UniProt P49356)	1.02 ± 0.16	0.944 ± 0.093	0.976 ± 0.032	1.02 ± 0.017	0.965 ± 0.12	0.905 ± 0.085	0.966 ± 0.064	0.96 ± 0.12
PSMB2 (UniProt P49721)	1.04 ± 0.075	1.07 ± 0.098	1.05 ± 0.1	1.06 ± 0.15	1.07 ± 0.14	1.08 ± 0.16	1.06 ± 0.13	0.981 ± 0.15
UniProt P37275 and related entries	0.935 ± 0.12	0.965 ± 0.13	0.99 ± 0.12	0.928 ± 0.1	0.937 ± 0.12	0.936 ± 0.084	0.976 ± 0.082	0.98 ± 0.094
ABCD3 (UniProt P28288)	1.07 ± 0.11	1.16 ± 0.14	0.98 ± 0.08	1.04 ± 0.17	1.03 ± 0.16	1.01 ± 0.13	0.962 ± 0.075	0.927 ± 0.098
PRDX2 (UniProt P32119)	0.901 ± 0.063	0.929 ± 0.064	0.891 ± 0.078	0.84 ± 0.07	0.819 ± 0.073	0.846 ± 0.064	0.819 ± 0.089	0.8 ± 0.077
UniProt P47813	0.9205 ± 0.0017	0.87 ± 0.011	0.9582 ± 0.0091	1.027 ± 0.0088	1.139 ± 0.0049	1.166 ± 0.0046	1.05 ± 0.14	1.25 ± 0.1
UniProt P49674	1.1 ± 0.097	1.12 ± 0.18	1.03 ± 0.1	1.01 ± 0.056	1 ± 0.073	1.08 ± 0.091	1.19 ± 0.063	1.14 ± 0.068
RPL21 (UniProt P46778)	0.981 ± 0.092	1 ± 0.082	1.05 ± 0.12	1.01 ± 0.14	0.914 ± 0.2	0.856 ± 0.19	0.72 ± 0.22	0.971 ± 0.23
ECHS1 (UniProt P30084)	0.937 ± 0.084	0.951 ± 0.07	0.928 ± 0.075	0.902 ± 0.06	0.91 ± 0.092	0.919 ± 0.057	0.913 ± 0.087	0.899 ± 0.067
DEK (UniProt P35659)	0.895 ± 0.054	0.909 ± 0.073	1.02 ± 0.08	1 ± 0.12	1.07 ± 0.11	1.09 ± 0.11	1.17 ± 0.079	1.22 ± 0.14
UniProt P49588 and related entries	0.95 ± 0.017	0.981 ± 0.025	0.928 ± 0.032	0.895 ± 0.034	0.876 ± 0.043	0.905 ± 0.041	0.877 ± 0.04	0.848 ± 0.052
UniProt P48556 and related entries	1.07 ± 0.12	1.01 ± 0.17	1.09 ± 0.17	1.13 ± 0.22	1.13 ± 0.16	1.09 ± 0.21	1.05 ± 0.16	1.02 ± 0.2
HSPA13 (UniProt P48723)	1.04 ± 0.088	1.02 ± 0.1	0.987 ± 0.043	1.01 ± 0.04	1.02 ± 0.067	0.973 ± 0.061	0.996 ± 0.079	0.956 ± 0.051
FDFT1 (UniProt P37268)	0.972 ± 0.027	0.949 ± 0.018	0.896 ± 0.032	0.91 ± 0.037	0.878 ± 0.024	0.872 ± 0.034	0.815 ± 0.039	0.824 ± 0.052
UniProt P49336 and related entries	1.04 ± 0.14	1.09 ± 0.1	1.1 ± 0.14	1.19 ± 0.18	1.13 ± 0.095	1.1 ± 0.097	1.22 ± 0.12	1.1 ± 0.053
UniProt P48426 and related entries	0.972 ± 0.05	0.999 ± 0.027	0.949 ± 0.029	0.965 ± 0.041	0.968 ± 0.034	1.06 ± 0.052	1.07 ± 0.042	1.1 ± 0.053

Reformatted: entries from further up.
Target,NP40-soluble protein abundance (concentration: 0.1mM),NP40-soluble protein abundance (concentration: 0.5mM),NP40-soluble protein abundance (concentration: 1mM),NP40-soluble protein abundance (concentration: 2mM),NP40-soluble protein abundance (concentration: 4mM),NP40-soluble protein abundance (concentration: 6mM),NP40-soluble protein abundance (concentration: 8mM),NP40-soluble protein abundance (concentration: 10mM)
UniProt P41214,1.04 ± 0.051,1.02 ± 0.04,1 ± 0.021,0.984 ± 0.041,1 ± 0.034,0.952 ± 0.033,0.981 ± 0.044,0.933 ± 0.069
CENPF (UniProt P49454),0.987 ± 0.026,0.995 ± 0.045,1.03 ± 0.048,1.04 ± 0.061,1.06 ± 0.045,1.06 ± 0.055,1.1 ± 0.058,1.11 ± 0.086
ABCD3 (UniProt P28288),1.07 ± 0.11,1.16 ± 0.14,0.98 ± 0.08,1.04 ± 0.17,1.03 ± 0.16,1.01 ± 0.13,0.962 ± 0.075,0.927 ± 0.098
UniProt P49674,1.1 ± 0.097,1.12 ± 0.18,1.03 ± 0.1,1.01 ± 0.056,1 ± 0.073,1.08 ± 0.091,1.19 ± 0.063,1.14 ± 0.068
UniProt P49588 and related entries,0.95 ± 0.017,0.981 ± 0.025,0.928 ± 0.032,0.895 ± 0.034,0.876 ± 0.043,0.905 ± 0.041,0.877 ± 0.04,0.848 ± 0.052
UniProt P48556 and related entries,1.07 ± 0.12,1.01 ± 0.17,1.09 ± 0.17,1.13 ± 0.22,1.13 ± 0.16,1.09 ± 0.21,1.05 ± 0.16,1.02 ± 0.2
